# Percent effect of library compounds

Data taken from ChEMBL document CHEMBL3988442, “University of Dundee, Small-Polar-MMV Screening Library” (2021).

Results are given as percent effect.
The record does not define 0% and 100%; most values in the screen are far below 50% and negative numbers occur (in some assays of this library far below -100).
This is an unselected part of the compounds tested.
Two or more numbers in one place are separate tests of the same structure; such repeats can differ widely.

Mtb glucose medium: 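Phenotypic screen: M. tuberculosis growth, glucose 7H9 medium, 3 days; the read-out is not stated. Tested at 50 µM. Direction is inferred from retests: higher values go with more growth inhibition. Of about 69,000 compounds tested this way, about 760 (1.1%) reached 50% or more in at least one test.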
Mtb cholesterol medium: 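Growth of Mycobacterium tuberculosis over 4 days (cholesterol / DPPC medium with tyloxapol); the read-out is not stated. Concentration: 50 µM. Direction is inferred from retests: higher values go with more growth inhibition. About 69,000 compounds were tested under these conditions; 0.54% (about 370) showed 50% or more at least once.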

{"smiles": "Cc1nc[nH]c1C(=O)N1CCC2(CN(C)C(=O)O2)C1", "stereo": "stereo not shown", "Mtb glucose medium": 4.354, "Mtb cholesterol medium": -3.634}
{"smiles": "Cc1ccccc1CCC(=O)N1CCCC(c2cc(C(N)=O)[nH]n2)C1", "stereo": "stereo not shown", "Mtb glucose medium": -21.01, "Mtb cholesterol medium": -36.27}
{"smiles": "COc1ccc(CN2CCCCCC2c2cccs2)c(O)c1", "stereo": "stereo not shown", "Mtb glucose medium": 22.36, "Mtb cholesterol medium": 7.292}
{"smiles": "COCC1CC2(CCN(Cc3cccnc3)CC2)CN1C(C)C", "stereo": "stereo not shown", "Mtb glucose medium": -33.88, "Mtb cholesterol medium": 5.673}
{"smiles": "CC(C)c1nccn1C1CCCN(C(=O)c2cn3cccnc3n2)C1", "stereo": "stereo not shown", "Mtb glucose medium": -2.514, "Mtb cholesterol medium": -7.157}
{"smiles": "CCc1cc(CNC(=O)N(C2CC2)C(C)c2ccco2)[nH]n1", "stereo": "stereo not shown", "Mtb glucose medium": 21.09, "Mtb cholesterol medium": 7.124}
{"smiles": "CC(C)Oc1ccc(C(=O)N2CCCSCC2CN(C)C)cc1", "stereo": "stereo not shown", "Mtb glucose medium": 7.332, "Mtb cholesterol medium": -35.55}
{"smiles": "CC(C)NC(=O)N1CCN(S(C)(=O)=O)CC2(CNC(=O)C2)C1", "stereo": "stereo not shown", "Mtb glucose medium": 9.966, "Mtb cholesterol medium": -16.18}
{"smiles": "CC(C(=O)N1CCOCC1)S(=O)(=O)Cc1nc(C(C)(C)C)no1", "stereo": "stereo not shown", "Mtb glucose medium": "-5.392 and 6.173", "Mtb cholesterol medium": 2.849}
{"smiles": "O=C(O)C(F)(F)F.[H][C@@]12CCN(C3CCCC3)C[C@@]1([H])[C@H](C(=O)NC1CCC1)CCO2", "Mtb glucose medium": "-1.484 and -2.278", "Mtb cholesterol medium": 2.526}
{"smiles": "CN(C)c1cc(CNCc2ccc(N3CCOCC3)cc2)ccn1", "Mtb glucose medium": 5.925, "Mtb cholesterol medium": 33.1}
{"smiles": "O=C(NCc1nc(C2CCCCC2)no1)C1CC(=O)N(C2CCCC2)C1", "stereo": "stereo not shown", "Mtb glucose medium": -13.48, "Mtb cholesterol medium": -35.74}
{"smiles": "CCC[C@H]1CN(Cc2ccc3c(c2)OCCO3)C[C@@H]1NC(=O)COC", "Mtb glucose medium": 1.896, "Mtb cholesterol medium": "-0.4831 and -2.139"}
{"smiles": "Cc1ccsc1CN(CCN(C)C)C(=O)c1cc2ccccc2[nH]1", "Mtb glucose medium": "4.632 and -2.159", "Mtb cholesterol medium": "-11.21 and 6.935"}
{"smiles": "CC1CCc2nc(O)c(C(=O)NCc3ccccn3)cc2C1", "stereo": "stereo not shown", "Mtb glucose medium": -18.45, "Mtb cholesterol medium": "0.5448 and 6.542"}
{"smiles": "Cc1nc(-c2ccncc2)ncc1C(C)NC(=O)Cn1ccccc1=O", "stereo": "stereo not shown", "Mtb glucose medium": 8.885, "Mtb cholesterol medium": 13.18}
{"smiles": "Cn1ccnc1CN1CCC(c2nnc(Cn3cccn3)n2C)CC1", "Mtb glucose medium": -48.03, "Mtb cholesterol medium": -16.4}
{"smiles": "O=C(c1ccc[nH]1)N1CCOC2(COCCN(c3cncnc3)C2)C1", "stereo": "stereo not shown", "Mtb glucose medium": 10.77, "Mtb cholesterol medium": -8.493}
{"smiles": "COCCNc1c(C#N)c2c(c3nncn13)CN(C)CC2", "Mtb glucose medium": -18.03, "Mtb cholesterol medium": -2.233}
{"smiles": "N#Cc1ccc(CNC(=O)NCCC(=O)NC2CCCC2)c(F)c1", "Mtb glucose medium": 9.685, "Mtb cholesterol medium": "-4.966 and -14.24"}
{"smiles": "CCCOC1CCCN(C(=O)c2ccnc(N3CCN(C)CC3)c2)C1", "stereo": "stereo not shown", "Mtb glucose medium": -19.8, "Mtb cholesterol medium": "-8.76 and 3.218"}
{"smiles": "Cn1nc2c(cc1=O)CN(CCOc1ccccc1C#N)CC2", "Mtb glucose medium": 3.571, "Mtb cholesterol medium": -15.16}
{"smiles": "Cc1ccnc(NCCSc2nccn2C)n1", "Mtb glucose medium": 7.547, "Mtb cholesterol medium": 1.811}
{"smiles": "[H][C@@]12CN(C(=O)N(C)C)C[C@]1([H])C(=O)N(Cc1cccc(F)c1)C2", "Mtb glucose medium": 2.289, "Mtb cholesterol medium": -29.06}
{"smiles": "OCCCc1nncn1-c1cccc(C(F)(F)F)c1", "Mtb glucose medium": -17.5, "Mtb cholesterol medium": -2.395}
{"smiles": "COC(=O)C(C)N(Cc1cc(C)on1)C1CC1", "stereo": "stereo not shown", "Mtb glucose medium": "-1.183 and -9.957", "Mtb cholesterol medium": -9.712}
{"smiles": "CCNC(=O)N1CCC2(CC1)CCn1c(-c3cccc(OC)c3)cnc12", "Mtb glucose medium": "-4.738 and -0.4958", "Mtb cholesterol medium": 3.787}
{"smiles": "NC(=O)c1ccc(N2CCCCC2)c(NC(=O)c2ccc(F)cc2F)c1", "Mtb glucose medium": "8.689 and -8.937", "Mtb cholesterol medium": -25.58}
{"smiles": "Cc1ccc(-n2c(C)nnc2SCC(O)COCc2ccco2)cc1", "stereo": "stereo not shown", "Mtb glucose medium": 52.47, "Mtb cholesterol medium": 12.23}
{"smiles": "CSCc1ccc(N2CCC(C(O)CC(C)C)CC2)nc1", "stereo": "stereo not shown", "Mtb glucose medium": 0.1993, "Mtb cholesterol medium": -12.16}
{"smiles": "CCS(=O)(=O)N1CCC2(CC(=O)N(c3ccc4c(c3)OCO4)C2)C1", "stereo": "stereo not shown", "Mtb glucose medium": "-9.403 and -6.045", "Mtb cholesterol medium": -13.96}
{"smiles": "Cc1cnn(CCNc2nc(C)cc(N(C)C)n2)c1", "Mtb glucose medium": -21.31, "Mtb cholesterol medium": -17.68}
{"smiles": "CCCNc1ncc(CN2CCC3(CC2)CNC(=O)C3)cn1", "Mtb glucose medium": "0.6737 and 12.46", "Mtb cholesterol medium": "-0.7082 and 0.2161"}
{"smiles": "[H][C@]12CCN(c3ncc(F)cn3)C[C@@]1([H])OCCN(C(=O)c1ccco1)C2", "Mtb glucose medium": "0.3584 and -15.29", "Mtb cholesterol medium": 18.42}
{"smiles": "COCC(C)NC(=O)CCSc1ccc(F)cc1", "stereo": "stereo not shown", "Mtb glucose medium": "19.23 and 2.182", "Mtb cholesterol medium": -1.318}
{"smiles": "O=C(NCCCOCC1CCCO1)c1cccnc1N1CCCC1", "stereo": "stereo not shown", "Mtb glucose medium": -4.285, "Mtb cholesterol medium": "-21.13 and 6.833"}
{"smiles": "[H][C@@]12OCCN(C(=O)c3ccncn3)[C@@]1([H])CC[C@@H]2OCc1cccnc1", "Mtb glucose medium": 16.96, "Mtb cholesterol medium": 18.55}
{"smiles": "OCC1CCCN1c1cc(NCCNc2ccccn2)ncn1", "stereo": "stereo not shown", "Mtb glucose medium": "-16.91 and 4.185", "Mtb cholesterol medium": -0.833}

Repeated from the top, 5 entries:

SMILES	Mtb glucose medium	Mtb cholesterol medium
Cc1nc[nH]c1C(=O)N1CCC2(CN(C)C(=O)O2)C1 (stereo not shown)	4.354	-3.634
Cc1ccccc1CCC(=O)N1CCCC(c2cc(C(N)=O)[nH]n2)C1 (stereo not shown)	-21.01	-36.27
COc1ccc(CN2CCCCCC2c2cccs2)c(O)c1 (stereo not shown)	22.36	7.292
COCC1CC2(CCN(Cc3cccnc3)CC2)CN1C(C)C (stereo not shown)	-33.88	5.673
CC(C)c1nccn1C1CCCN(C(=O)c2cn3cccnc3n2)C1 (stereo not shown)	-2.514	-7.157